Data reported in PubChem BioAssay AID2685 (National Center for Advancing Translational Sciences (NCATS), 2010).
The other results are listed elsewhere or left out. These are further read-outs of the screen, such as a control signal, another cell line or another target. No call is given for them. Most of these compounds were active or inconclusive in the main read-out, so they are no random draw. Words in brackets tell the shape of the fitted curve; partial curves, single points and poor fits give uncertain potencies.

Test: qHTS Assay for Lipid Storage Modulators in Drosophila S3 Cells;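 for cell number change: cells counted by Cell Tracker Red CMTPX staining in the red channel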
Details: BODIPY lipid droplet fluorescence, 18-24 h; for cell number change: measured here: cell count max response, cells fed with added oleic acid
Summary of the method: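 Drosophila S3 cells got compounds at several concentrations plus oleic acid (400 uM solution). Laser-scanning cytometry with 488 nm excitation read lipid droplets at 500-530 nm and cells at 575-640 nm. Percent activity was relative to 20 uM Triacsin C.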

[1] = measured here: lipid fluorescence (Fed channel) AC50, cells fed with added oleic acid
[2] = measured here: cell number channel AC50, cells fed with added oleic acid

| Compound | cell number change [%] | AC50 [1] | AC50 [2] |
| --- | --- | --- | --- |
| CC(c1nnc(SCC(=O)N(C)C2CCS(=O)(=O)C2)n1-c1ccccc1)N(C)C (stereo not given) | -2.52 | 2.91 µM [rising, full curve] | – |
| Cc1nc2ccccc2c(=O)n1/N=C/c1ccc(N(C)C)cc1 | -21.4 | 0.517 µM [rising, full curve] | – |
| C=CCNc1nc(C(=O)OCC(=O)c2ccc(OC)cc2OC)cs1 | – | – | 0.103 µM [rising, full curve, poor fit] |
| O=C(NCCCN1CCOCC1)C(=O)N/N=C/c1ccccc1Cl | -1.17 | – | – |
| N#Cc1ccc(CC(C(=O)O)N2Cc3ccccc3C2=O)cc1 (stereo not given) | -21.5 | 9.2 µM [falling, partial curve, poor fit] | – |
| COc1ccc(-c2cc(C(=O)N3CCCCC3)c3ccccc3n2)cc1OC | 5.6 | 0.013 µM [rising, full curve, poor fit] | – |
| COc1ccc(C(CC(=O)NCc2ccccc2)Sc2n[nH]c(-c3ccccc3)n2)cc1 (stereo not given) | 22 | 6.51 µM [falling, partial curve] | – |
| COC(=O)c1c(C)cc(OC(C)=O)c(C)c1OC(C)=O | 1.23 | – | 7.31 µM [falling, single point] |
| O=c1oc2ccc3ccccc3c2cc1-c1nnc(-c2ccccc2)o1 | – | – | 5.8 µM [rising, single point] |
| Cc1nn(-c2ccccc2)c(Cl)c1/C=N/Nc1nc2ccccc2[nH]1 | -53.3 | 4.61 µM [falling, full curve] | 8.2 µM [falling, partial curve] |
| Cc1ccc2cc(C3C(C#N)=C(N)Oc4c3ccc3cccnc43)c(=O)[nH]c2c1 (stereo not given) | -23.6 | 29.1 µM [falling, single point] | – |
| CCc1ccccc1NC(=O)c1cc(C2CC2)on1 | -32.3 | – | – |
| COc1cc2cc(C)c(SCC(=O)N3CCOCC3)nc2cc1OC | -1.61 | – | – |
| O=C(O)c1ccc(C(=O)c2ccc3c(c2)C(=O)N(Cc2ccco2)C3=O)cc1 | -22.8 | 3.26 µM [falling, full curve] | 1.46 µM [falling, full curve, poor fit] |
| CC(OC(=O)c1cc(S(=O)(=O)N(C)c2ccccc2)ccc1Cl)C(=O)Nc1ccc2c(c1)OCCO2 (stereo not given) | 10.8 | 6.51 µM [rising, single point] | – |
| O=C(CCN1C(=O)/C(=C/c2ccc3c(c2)OCO3)SC1=S)Nc1ccccc1 | -23.7 | 0.92 µM [rising, full curve, poor fit] | – |
| CCN(C(=O)COC(=O)c1cc([N+](=O)[O-])ccc1N1CCOCC1)C1CCCCC1 | – | – | 0.517 µM [rising, partial curve] |
| COc1ccccc1NC(=O)Nc1cnccn1 | 22 | – | 0.103 µM [rising, full curve, poor fit] |
| O=C(COc1ccccc1)Nc1ccc(NC(=O)c2ccco2)cc1 | 10.6 | 0.0517 µM [rising, full curve, poor fit] | – |
| COc1ccc(C(=O)CCC(=O)NCCc2c[nH]c3ccccc23)cc1 | -14 | 3.26 µM [falling, single point] | – |
| COc1ccc(C(=O)CN2C(=O)c3ccccc3S2(=O)=O)cc1 | 10.9 | 13 µM [rising, partial curve, poor fit] | – |

| Compound | cell number change [%] | AC50 [1] | AC50 [2] |
| --- | --- | --- | --- |
| CC(=O)c1cccc(NC(=O)CN(c2ccccc2)S(C)(=O)=O)c1 | 11.7 | 2.31 µM [rising, partial curve] | – |
| COc1ccc(OC)c(C2C3CN(C(C)C)CC=C3C(C#N)=C(N)C2(C#N)C#N)c1 (stereo not given) | 30.8 | – | 25.9 µM [rising, partial curve, poor fit] |
| O=C(Nc1cc(SCCO)cc([N+](=O)[O-])c1)c1ccco1 | 27.3 | 11.6 µM [rising, partial curve] | – |
| O=C1NC(c2ccco2)Nc2sc3c(c21)CCN(Cc1ccccc1)C3 (stereo not given) | 89.4 | – | 23.1 µM [rising, single point] |
| O=C(CSc1nc(-c2ccccc2)c(-c2ccccc2)o1)Nc1nncs1 | 41.8 | 7.31 µM [rising, partial curve] | 3.66 µM [rising, full curve] |
| Cc1cc(C(=O)NC2CCCc3c2cnn3-c2ccc(C)c(C)c2)n(C)n1 (stereo not given) | -17.3 | 0.92 µM [falling, full curve] | 0.58 µM [falling, partial curve, poor fit] |
| Cc1[nH]c2ccccc2c1C(c1ccncc1)N1CCC(C)CC1 (stereo not given) | -2.85 | – | – |
| COc1ccc(CC(=O)Nc2ccccc2N2CCOCC2)cc1OC | 23.3 | – | – |
| Cc1ccc(NC(=O)c2cc(C)nc3ccccc23)c(Br)c1 | -8.76 | 6.51 µM [rising, single point] | – |
| O=C(NCCC1CCCC1)C1CCC(=O)N(CCCN2CCCC2=O)C1 (stereo not given) | – | 6.51 µM [rising, single point] | – |
| Nc1nc(-c2ccccn2)nc(N)c1Cc1c(F)cccc1Cl | -63.4 | – | 29.1 µM [falling, single point] |
| O=C(C1CCC1)N1CCc2cc(S(=O)(=O)NCc3ccccn3)ccc21 | 2.17 | 0.116 µM [rising, full curve] | – |
| Cc1ccc2nc(C)cc(C(=O)Nc3nccs3)c2c1 | – | 0.0731 µM [rising, partial curve, poor fit] | – |
| O=S(=O)(NC1=NCCCCC1)c1ccc(Cl)cc1 | -20.6 | 0.58 µM [rising, single point] | – |
| COc1ccccc1N1CCN(S(=O)(=O)CCNC(=O)c2ccc(OC(C)C)cc2)CC1 | 7.26 | – | – |
| COc1ccc(C(=O)Nc2ccccc2C(=O)NC(Cc2ccc(O)cc2)C(=O)NNC(=O)c2ccccc2)cc1 (stereo not given) | 8 | – | – |
| CCN(CC)S(=O)(=O)c1ccc(O)c(C(=O)OCC(=O)N(C)Cc2ccccc2)c1 | -5.56 | – | – |
| O=C(Cc1ccc(Cl)c(Cl)c1)Nc1cccc(S(=O)(=O)N2CCOCC2)c1 | 25.5 | – | – |
| Cc1c(C)c2cc(Cl)c(O)c(CN3CCCC(C)C3)c2oc1=O (stereo not given) | 148 | – | 11.6 µM [rising, partial curve] |
| COc1cc(/C=C2\SC(=S)N(NC(=O)c3cccnc3)C2=O)ccc1O | -97.1 | 2.91 µM [falling, partial curve, poor fit] | 29.1 µM [falling, single point] |
| Nc1ccc(-c2nnc(-c3ccccc3)o2)cc1 | – | 7.31 µM [falling, partial curve, poor fit] | – |

| Compound | cell number change [%] | AC50 [1] | AC50 [2] |
| --- | --- | --- | --- |
| COc1ccccc1C1=NN(C(=S)Nc2ccccc2)C(c2ccco2)C1 (stereo not given) | 20.5 | 0.517 µM [rising, single point] | – |
| O=C(Cc1cccs1)N/N=C/c1ccc(OCc2ccccc2)cc1 | -22 | 32.6 µM [falling, single point] | – |
| CCOc1ccccc1NC(=O)c1c(Br)cnn1C | 66.7 | – | 29.1 µM [rising, single point] |
| Cc1[nH]c2ccc3ncccc3c2c1C | 58.7 | 2.59 µM [rising, single point] | 2.91 µM [rising, full curve] |
| O=c1c2ccccc2ncn1Cc1ccc2c(c1)OCO2 | -2.91 | 5.8 µM [rising, partial curve] | – |
| O=C(Nc1ccccc1)Nc1snnc1C(=O)Nc1cccc(O)c1 | -31.5 | 7.31 µM [falling, partial curve] | 9.2 µM [falling, partial curve, poor fit] |
| Cc1ccccc1-n1cc(CNCc2c(C(=O)N(C)C)nc3ccc(Cl)cn23)cn1 | 13.6 | – | – |
| CCCn1c(=O)c2c(C(F)(F)F)cc(-c3cccs3)nc2n(CCC)c1=O | – | 0.00461 µM [rising, full curve, poor fit] | – |
| CCN(CC)S(=O)(=O)c1ccc2c(c1)c(=O)c(C(=O)NCc1cccs1)cn2C | 4.89 | 0.517 µM [rising, single point] | – |
| COc1ccc(-n2nnnc2/C(=C/N(C)C)C(=O)c2ccccc2)cc1 | 20.1 | – | – |
| Cc1ccc(NS(=O)(=O)c2cc(NC(=O)c3cc4c(s3)CCCC4)ccc2C)c(C)c1 | -1.44 | – | – |
| CCOC(=O)c1cccc2c1-c1ccccc1/C2=N/O | -29.4 | 0.13 µM [falling, full curve, poor fit] | – |
| Cc1cc(N)n(-c2nc(-c3cccnc3)nc3ccccc23)n1 | -8.9 | 2.59 µM [falling, single point] | – |
| CCS(=O)(=O)C(=C1NCCO1)S(=O)(=O)CC | -31.2 | 3.66 µM [falling, full curve] | 0.731 µM [falling, full curve] |
| CC(C)(C)OC(=O)N1CCC[C@H]1c1nnc(SCc2c(F)cccc2Cl)o1 | -2.18 | 29.1 µM [rising, single point] | – |
| COc1ccccc1NS(=O)(=O)c1cccc(N=C2N=C(N)c3ccccc32)c1 | -9.15 | 0.146 µM [rising, full curve, poor fit] | 6.51 µM [rising, single point] |
| CCC(=O)Nc1nnc(SCC(=O)NC2CCCC2)s1 | -6.58 | 1.12 µM [rising, partial curve] | – |
| Cc1noc(C)c1C(=O)OCC(=O)Nc1c(F)cccc1F | -22.6 | – | – |
| O=C1c2ccccc2C(=O)N1CC1=NCCc2ccccc21 | -13.4 | 8.2 µM [rising, partial curve] | – |
| NC(=O)CC(NC(=O)c1ccccc1)c1ccc(N2CCCCCC2)c([N+](=O)[O-])c1 (stereo not given) | 1.8 | 0.517 µM [falling, single point] | – |
| O=C(Nc1cccc2ccccc12)/C(=C/c1ccc([N+](=O)[O-])cc1)NC(=O)c1ccccc1 | -6.03 | 4.61 µM [rising, single point] | – |

Laid out differently: results already given
Compound	cell number change [%]	AC50 [1]	AC50 [2]
O=C(Cc1cccs1)N/N=C/c1ccc(OCc2ccccc2)cc1	-22	32.6 µM [falling, single point]	–
CCOc1ccccc1NC(=O)c1c(Br)cnn1C	66.7	–	29.1 µM [rising, single point]
Cc1[nH]c2ccc3ncccc3c2c1C	58.7	2.59 µM [rising, single point]	2.91 µM [rising, full curve]
O=c1c2ccccc2ncn1Cc1ccc2c(c1)OCO2	-2.91	5.8 µM [rising, partial curve]	–
O=C(Nc1ccccc1)Nc1snnc1C(=O)Nc1cccc(O)c1	-31.5	7.31 µM [falling, partial curve]	9.2 µM [falling, partial curve, poor fit]
Cc1ccccc1-n1cc(CNCc2c(C(=O)N(C)C)nc3ccc(Cl)cn23)cn1	13.6	–	–
CCCn1c(=O)c2c(C(F)(F)F)cc(-c3cccs3)nc2n(CCC)c1=O	–	0.00461 µM [rising, full curve, poor fit]	–
CCN(CC)S(=O)(=O)c1ccc2c(c1)c(=O)c(C(=O)NCc1cccs1)cn2C	4.89	0.517 µM [rising, single point]	–
COc1ccc(-n2nnnc2/C(=C/N(C)C)C(=O)c2ccccc2)cc1	20.1	–	–
Cc1ccc(NS(=O)(=O)c2cc(NC(=O)c3cc4c(s3)CCCC4)ccc2C)c(C)c1	-1.44	–	–
CCOC(=O)c1cccc2c1-c1ccccc1/C2=N/O	-29.4	0.13 µM [falling, full curve, poor fit]	–
Cc1cc(N)n(-c2nc(-c3cccnc3)nc3ccccc23)n1	-8.9	2.59 µM [falling, single point]	–
CCS(=O)(=O)C(=C1NCCO1)S(=O)(=O)CC	-31.2	3.66 µM [falling, full curve]	0.731 µM [falling, full curve]
CC(C)(C)OC(=O)N1CCC[C@H]1c1nnc(SCc2c(F)cccc2Cl)o1	-2.18	29.1 µM [rising, single point]	–
COc1ccccc1NS(=O)(=O)c1cccc(N=C2N=C(N)c3ccccc32)c1	-9.15	0.146 µM [rising, full curve, poor fit]	6.51 µM [rising, single point]

Nothing new here: an excerpt of the list.

| Compound | cell number change [%] | AC50 [1] | AC50 [2] |
| --- | --- | --- | --- |
| CCN(CC)S(=O)(=O)c1ccc2c(c1)c(=O)c(C(=O)NCc1cccs1)cn2C | 4.89 | 0.517 µM [rising, single point] | – |
| COc1ccc(-n2nnnc2/C(=C/N(C)C)C(=O)c2ccccc2)cc1 | 20.1 | – | – |
